Test results as given in PubChem BioAssay AID540256 (National Center for Advancing Translational Sciences (NCATS), 2011).
In all, about 300,000 compounds went through this assay and about 3,700 (1.2%) were called active. Inconclusive means that the source gave no clear call. Such entries were picked first, then a sample of the others. Calls follow the shape of the full dose curve; tested in HEK293 cells. A potency beside an inconclusive call is a rough fit, not a confirmed value.

Assay: qHTS for Inhibitors of binding or entry into cells for Lassa Virus; also: nearly all actives have a fitted effect of over 50% in size
Details: Lassa virus pseudotype entry inhibition, cell reporter; series mostly up to 37.9 µM
Potency is read from the fitted curve at half-maximal effect.

Row | SMILES | Potency
1 | CN(C)c1cc[n+](CC(=O)c2ccc(Br)cc2)cc1 | inconclusive: 22.4 µM [inhibitor, partial curve, poor fit]
2 | COc1ccc(Cc2nnc(SCC(=O)NC(C)c3ccccc3)o2)cc1 (configuration not stated) | inconclusive: 23.1 µM [inhibitor, partial curve, poor fit]
3 | CN(c1ccccc1)S(=O)(=O)c1ccc(C(=O)Nc2ncccc2O)cc1 | inconclusive: 12.6 µM [inhibitor, partial curve]
4 | O=C(Nc1cccc(Cl)c1)c1ccc(NCCCN2CCOCC2)c([N+](=O)[O-])c1 | inconclusive: 35.5 µM [inhibitor, single point]
5 | O=C(O)c1ccc(N2C(=O)/C(=C\c3ccccc3)N=C2c2ccccc2)cc1 | inactive
6 | CCc1ccc(NC(=O)C2CCCN(S(=O)(=O)c3cccc4nonc34)C2)cc1 (configuration not stated) | inconclusive: 3.16 µM [inhibitor, single point]
7 | O=C(CN1CCC(n2nnc3cc(C(F)(F)F)ccc32)CC1)NCc1cccs1 | inconclusive: 35.5 µM [inhibitor, single point]
8 | Cc1cccc(NC(=O)NC(C)C(c2ccccc2)N2CCN(C)CC2)c1 (configuration not stated) | inconclusive: 3.16 µM [activator, full curve, poor fit]
9 | C/C(=N\NC(=O)c1c(Cl)c(C)nn1C)c1cccc(NC(=O)COc2ccc(Cl)cc2)c1 | inconclusive: 1.3 µM [activator, single point]
10 | COc1cccc(NC(=O)C(=O)NCCc2csc3nc(-c4ccccc4C)nn23)c1 | inconclusive: 12.6 µM [inhibitor, single point]
11 | COc1cc2c(cc1NC(=O)COC(=O)[C@@H](NC(=O)c1ccccc1F)C(C)C)oc1ccccc12 | inactive
12 | Cc1ccc(CN2CC(C(=O)OCc3ccccc3Cl)CC2=O)cc1 (configuration not stated) | inactive
13 | COc1ccc(-c2cc(-c3ccccc3)nc3c2COc2ccccc2-3)cc1 | inconclusive: 6.31 µM [inhibitor, partial curve, poor fit]
14 | Cc1ccc(S(=O)(=O)Nc2cccc(-c3ccc4nnc(C)n4n3)c2)s1 | inconclusive: 6.31 µM [inhibitor, single point]
15 | O=C(CNC(=O)c1cc(S(=O)(=O)N2CCCCC2)ccc1N1CCOCC1)Nc1ccc(F)c(F)c1 | inactive
16 | COCCCNc1nc(-c2ccc(Cl)cc2)nc2ccccc12 | inconclusive: 5.01 µM [activator, partial curve, poor fit]
17 | Cc1ccc(S(=O)(=O)N2CCCC(C(=O)N3CCN(C)CC3)C2)cc1 (configuration not stated) | inconclusive: 0.708 µM [activator, single point]
18 | Cc1ccc(-n2c(C)cc(C(=O)COC(=O)c3c(C)noc3C)c2C)cc1 | inconclusive: 29.1 µM [inhibitor, single point]
19 | O=C1C2CC=CCC2C(=O)N1c1cccc(OS(=O)(=O)c2ccc3ccccc3c2)c1 (configuration not stated) | inconclusive: 23.1 µM [inhibitor, single point]
20 | O=C(Nc1cccc2c1[nH]c1ccccc12)C(F)(F)F | inconclusive: 35.5 µM [inhibitor, partial curve, poor fit]
21 | CCN1C(=O)c2ccccc2Sc2ccc(NC(=O)Cc3ccc(OC)cc3)cc21 | inconclusive: 35.5 µM [inhibitor, single point]
22 | CCCc1nc2sc3c(c2c(=O)n1NC(=O)CCCl)CCCC3 | inconclusive: 7.94 µM [inhibitor, partial curve]
23 | Cc1ccc2c(=O)cc(C(=O)Nc3c(C(=O)c4ccccc4)oc4ccccc34)oc2c1C | inconclusive: 3.55 µM [activator, single point]

Row | SMILES | Potency
24 | COc1cc(OC)c(/C=N/n2c(C3CCCCC3)n[nH]c2=S)c(OC)c1 | inconclusive: 1.26 µM [inhibitor, single point]
25 | FC(F)(F)c1ccccc1NC(=S)N1CCN(c2ncccn2)CC1 | inconclusive: 22.4 µM [inhibitor, single point]
26 | CCC(C)NC(=O)c1ccc2c(c1)N=C(C)c1cc(C)ccc1S2 (configuration not stated) | inactive
27 | CCC1CCc2c(n(C)c3ccccc3c2=O)O1 (configuration not stated) | inconclusive: 12.6 µM [activator, partial curve, poor fit]
28 | CCOc1ccc(OCC(=O)Nc2ccccc2N2CCCC2)cc1 | inconclusive: 17.8 µM [inhibitor, single point]
29 | O=C(Nc1ccc(Cl)c(S(=O)(=O)N2CCOCC2)c1)c1cccs1 | inconclusive: 35.5 µM [inhibitor, single point]
30 | Cc1cc(C)c2c(=O)cc(C(=O)Nc3ccc(S(=O)(=O)Nc4onc(C)c4C)cc3)oc2c1 | inactive
31 | COc1cc(NC(=O)c2cc3ccccc3o2)c(OC)cc1Br | inconclusive: 20 µM [inhibitor, single point]
32 | CC(C)(C)OC(=O)N1CCC(c2c(C(=O)NCc3ccccn3)cnn2-c2ccc(F)cc2)CC1 | inconclusive: 8.91 µM [inhibitor, partial curve, poor fit]
33 | CSc1nsc(SCc2cnc(C)nc2N)n1 | inactive
34 | CC(C)c1cc(N2CCOCC2)n2ncc(-c3ccccc3)c2n1 | inconclusive: 0.562 µM [inhibitor, single point]
35 | COc1ccc(O)c(/C=N/Nc2nc(Nc3ccccc3)nc(-n3nc(C)cc3C)n2)c1 | active: 12.6 µM
36 | CCOC(=O)N1CCN(c2cc(NCCO)c([N+](=O)[O-])c3nonc23)CC1 | inconclusive: 0.112 µM [inhibitor, full curve, poor fit]
37 | O=c1cc(-c2ccccc2)ss1 | inactive
38 | COc1ccc(Cl)cc1N(C)C(=O)Cc1noc2ccc(C)cc12 | inactive
39 | Cc1cc(C(=O)CN2C(=O)c3ccccc3S2(=O)=O)c(C)n1CC1CCCO1 (configuration not stated) | active: 0.461 µM
40 | CCCCCN1CN(S(=O)(=O)c2cccs2)c2nc3ccccc3nc21 | inactive
41 | CSc1ccccc1NC(=O)CN(C)CC(=O)c1[nH]c(C)c(C(C)=O)c1C | inactive
42 | Cc1ccc(-c2nnn(CCC(=O)NC(C)(C)C)n2)cc1 | inactive
43 | CCOC(=O)/C(=C\c1ccc(Cl)cc1)c1nc2sc(C)c(C)c2c(=O)[nH]1 | inconclusive: 22.4 µM [inhibitor, single point]
44 | O=C(NCc1cccc(Cl)c1)c1cccc(OC2CCN(C(=O)C3CC3)CC2)c1 | inconclusive: 11.2 µM [inhibitor, single point]
45 | Cc1ccc(Cc2nc3ccccc3nc2SCC(=O)NCCc2ccccc2)cc1 | inactive
46 | COc1ccc(CCNC(=O)c2oc3ccc(S(=O)(=O)N4CCOCC4)cc3c2C)cc1OC | inconclusive: 14.6 µM [inhibitor, partial curve, poor fit]

Copied from the list.
COc1cc(OC)c(/C=N/n2c(C3CCCCC3)n[nH]c2=S)c(OC)c1 | Potency: inconclusive: 1.26 µM [inhibitor, single point]
CCN1C(=O)c2ccccc2Sc2ccc(NC(=O)Cc3ccc(OC)cc3)cc21 | Potency: inconclusive: 35.5 µM [inhibitor, single point]

Going on with the list:

Row | SMILES | Potency
47 | CC(=O)c1cc(-c2ccccc2)n(CCC(=O)NCCc2ccccc2)c1C | inconclusive: 35.5 µM [inhibitor, single point]
48 | Cn1nnc(C(O)CNCc2cccs2)n1 (configuration not stated) | inconclusive: 29.1 µM [activator, single point]
49 | CC(C)(C)c1ccc(C2=CSC3=NCCN23)cc1 | inconclusive: 17.8 µM [inhibitor, single point]
50 | Cc1cc2nn(-c3ccc(F)cc3)nc2cc1N | inconclusive: 7.08 µM [inhibitor, partial curve, poor fit]
51 | C=CCNC(=S)Nc1ccccc1 | inactive
52 | COc1ccc(CC(=O)Nc2ccc(F)c(F)c2F)cc1S(=O)(=O)N1CCOCC1 | inactive
53 | CC(=NCCc1c[nH]c2ccccc12)c1c(O)n(Cc2ccccc2)c(=O)[nH]c1=O | active: 11.2 µM
54 | COc1ccc(/C=C/C(=O)N(C)C2CCS(=O)(=O)C2)cc1OC (configuration not stated) | inconclusive: 35.5 µM [activator, partial curve, poor fit]
55 | COC(=O)Cn1ncc(N(C)Cc2ccccc2)c(Cl)c1=O | inconclusive: 35.5 µM [inhibitor, single point]
56 | CN(C)S(=O)(=O)c1ccc(C(=O)Nc2ccccc2C(=O)O)cc1 | inactive
57 | O=C(COc1ncnc2sccc12)NC1CCS(=O)(=O)C1 (configuration not stated) | inconclusive: 35.5 µM [activator, single point]
58 | CC(C)COc1ccc(C(=O)N(Cc2ccco2)C2CCS(=O)(=O)C2)cc1 (configuration not stated) | inconclusive: 35.5 µM [inhibitor, single point]
59 | Cc1ccc(NC(=S)N2CCCCC2)cc1C | inactive
60 | Cc1ccc(NC(=O)c2ccccc2F)nc1 | inconclusive: 3.26 µM [inhibitor, single point]
61 | Cc1onc(-c2ccccc2)c1C(=O)Nc1ccc(Br)cc1Cl | inactive
62 | Cc1cc(-c2nnc(CCC(=O)NCc3cccc(C(F)(F)F)c3)o2)no1 | inconclusive: 22.4 µM [activator, single point]
63 | Cc1ccc(C)c(N2CCN(c3nc4ccc(Cl)cc4n4cnnc34)CC2)c1 | inconclusive: 35.5 µM [activator, single point]
64 | O=C(C=Cc1ccccc1)Nc1cccc(C(=O)NCCCc2ccccc2)c1 | inconclusive: 9.95 µM [activator, full curve, poor fit]
65 | COc1cccc(-c2nc(SCc3ccc(C)cc3)n3[nH]c(=O)cc3n2)c1 | inconclusive: 0.891 µM [activator, full curve, poor fit]
66 | CC(C)(C)OC(=O)N1CCC(c2c(C(=O)N3CCC(c4ccccc4)C3)cnn2-c2ccc(Cl)cc2)CC1 (configuration not stated) | inconclusive: 1.26 µM [inhibitor, full curve, poor fit]
67 | O=C(c1c[nH]c(C(=O)N2CCN(c3ccccc3F)CC2)c1)c1cccc(Cl)c1Cl | inconclusive: 3.26 µM [inhibitor, single point]

Four of these compounds in a different format:
Row	SMILES	Potency
15	O=C(CNC(=O)c1cc(S(=O)(=O)N2CCCCC2)ccc1N1CCOCC1)Nc1ccc(F)c(F)c1	inactive
16	COCCCNc1nc(-c2ccc(Cl)cc2)nc2ccccc12	inconclusive: 5.01 µM [activator, partial curve, poor fit]
17	Cc1ccc(S(=O)(=O)N2CCCC(C(=O)N3CCN(C)CC3)C2)cc1 (configuration not stated)	inconclusive: 0.708 µM [activator, single point]
18	Cc1ccc(-n2c(C)cc(C(=O)COC(=O)c3c(C)noc3C)c2C)cc1	inconclusive: 29.1 µM [inhibitor, single point]
